Laboratory results reported in patent US11160826B1, “Cholesterol lowering drugs for the treatment of hepatic encephalopathy” (United States Government as represented by the Department …, priority 2017, dated 2021).
For at least one compound, name, drawing or mass did not settle the structure.

Legend:
neurons = experiment: Bile acid uptake into neurons by FRET bile acid sensors (CytoBAS, NucleoBAS); type: cell-based; settings: FRET analysis
[1] = system: AOM-induced acute liver failure; settings: mouse model of acute liver failure, McMillin et al. 2016; cited from earlier work

C[C@H](CCC(=O)O)[C@H]1CC[C@H]2[C@@H]3CC[C@@H]4C[C@H](O)CC[C@]4(C)[C@H]3C[C@H](O)[C@]12C [DCA, deoxycholic acid]
fluorescence intensity of cells transfected with cytoplasmic bile acid sensor (CytoBAS) (neurons): increased fluorescence intensity | fluorescence intensity of cells transfected with nuclear bile acid sensor (NucleoBAS) (neurons): increased fluorescence intensity | neurological decline associated with acute liver failure (previous studies) [1]: worsened the neurological decline
